The source of these data is article doi:10.1101/2021.10.22.465432 (bioRxiv, 2021).

Sequences of proteins named here, by UniProt entry; tags and fusion partners are left off. A change or cut given only in a name is not applied to a line headed by its entry.
UniProt D3YXK2, whole entry: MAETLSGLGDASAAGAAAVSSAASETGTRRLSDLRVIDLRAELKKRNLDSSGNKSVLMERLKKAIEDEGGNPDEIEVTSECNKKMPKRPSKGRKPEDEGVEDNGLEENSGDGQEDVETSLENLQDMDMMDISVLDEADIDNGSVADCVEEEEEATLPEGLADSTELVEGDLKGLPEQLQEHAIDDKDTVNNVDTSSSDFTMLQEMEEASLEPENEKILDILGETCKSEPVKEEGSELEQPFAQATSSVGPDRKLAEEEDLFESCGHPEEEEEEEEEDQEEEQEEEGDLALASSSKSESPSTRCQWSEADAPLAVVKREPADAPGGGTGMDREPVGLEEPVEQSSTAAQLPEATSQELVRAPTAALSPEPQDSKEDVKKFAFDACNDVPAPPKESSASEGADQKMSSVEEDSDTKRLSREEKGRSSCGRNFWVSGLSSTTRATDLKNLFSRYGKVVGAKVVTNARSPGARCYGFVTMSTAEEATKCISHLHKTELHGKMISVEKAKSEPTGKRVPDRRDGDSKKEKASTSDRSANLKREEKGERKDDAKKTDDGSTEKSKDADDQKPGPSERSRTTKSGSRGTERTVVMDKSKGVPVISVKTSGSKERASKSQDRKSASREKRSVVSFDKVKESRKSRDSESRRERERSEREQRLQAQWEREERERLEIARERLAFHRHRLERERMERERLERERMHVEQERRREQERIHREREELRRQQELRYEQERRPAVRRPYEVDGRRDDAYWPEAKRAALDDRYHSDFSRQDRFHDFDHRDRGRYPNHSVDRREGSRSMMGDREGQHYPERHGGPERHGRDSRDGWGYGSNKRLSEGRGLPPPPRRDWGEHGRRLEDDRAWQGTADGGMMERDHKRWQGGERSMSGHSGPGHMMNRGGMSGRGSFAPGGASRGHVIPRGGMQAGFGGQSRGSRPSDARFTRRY

What all share (assay): co-IP
The target in test [1] is T1, Drosha (mouse (endogenous in DG NSCs)) (UniProt Q5HZJ0).
T1 sequence: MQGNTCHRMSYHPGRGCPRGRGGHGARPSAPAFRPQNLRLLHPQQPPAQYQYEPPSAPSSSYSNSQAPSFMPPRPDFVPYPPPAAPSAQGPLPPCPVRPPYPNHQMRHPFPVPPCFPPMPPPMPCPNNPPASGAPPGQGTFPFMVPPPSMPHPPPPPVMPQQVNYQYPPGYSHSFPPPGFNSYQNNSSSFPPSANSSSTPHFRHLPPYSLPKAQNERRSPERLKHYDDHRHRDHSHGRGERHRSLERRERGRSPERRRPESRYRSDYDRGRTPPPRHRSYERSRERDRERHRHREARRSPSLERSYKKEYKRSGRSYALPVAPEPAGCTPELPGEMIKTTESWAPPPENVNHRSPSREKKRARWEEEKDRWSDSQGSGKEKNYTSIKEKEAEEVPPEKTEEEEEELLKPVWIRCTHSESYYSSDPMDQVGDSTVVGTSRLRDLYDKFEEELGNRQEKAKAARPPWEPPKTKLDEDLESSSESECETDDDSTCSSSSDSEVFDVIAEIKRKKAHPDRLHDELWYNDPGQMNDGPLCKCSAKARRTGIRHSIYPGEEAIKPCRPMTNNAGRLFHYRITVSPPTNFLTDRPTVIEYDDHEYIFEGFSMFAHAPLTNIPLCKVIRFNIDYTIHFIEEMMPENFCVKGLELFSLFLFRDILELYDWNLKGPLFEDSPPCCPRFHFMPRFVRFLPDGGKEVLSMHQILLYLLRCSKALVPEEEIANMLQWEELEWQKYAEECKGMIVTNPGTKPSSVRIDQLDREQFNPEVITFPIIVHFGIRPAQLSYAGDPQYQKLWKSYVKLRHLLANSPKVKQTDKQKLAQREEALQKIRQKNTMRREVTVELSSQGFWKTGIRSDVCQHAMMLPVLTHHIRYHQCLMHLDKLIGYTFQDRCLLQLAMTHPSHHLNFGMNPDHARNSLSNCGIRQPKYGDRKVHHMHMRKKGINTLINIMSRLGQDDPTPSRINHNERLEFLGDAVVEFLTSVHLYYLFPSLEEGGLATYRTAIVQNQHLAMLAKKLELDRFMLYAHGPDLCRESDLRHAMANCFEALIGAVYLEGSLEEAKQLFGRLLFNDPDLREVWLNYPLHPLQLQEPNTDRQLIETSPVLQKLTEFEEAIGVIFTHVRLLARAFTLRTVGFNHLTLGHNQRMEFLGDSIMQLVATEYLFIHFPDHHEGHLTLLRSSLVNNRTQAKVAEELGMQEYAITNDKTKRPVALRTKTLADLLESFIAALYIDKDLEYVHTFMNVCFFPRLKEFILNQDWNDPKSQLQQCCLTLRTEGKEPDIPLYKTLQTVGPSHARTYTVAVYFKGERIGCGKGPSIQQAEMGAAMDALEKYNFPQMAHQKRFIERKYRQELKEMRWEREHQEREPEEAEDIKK

The target in test [2] is Scaffold Attachment Factor B1 (Safb1) (mouse (endogenous in DG NSCs)) (UniProt D3YXK2).
For test [3], the target named is T2, Drosha (mouse (endogenous in N2A)) (UniProt Q5HZJ0).
T2 sequence: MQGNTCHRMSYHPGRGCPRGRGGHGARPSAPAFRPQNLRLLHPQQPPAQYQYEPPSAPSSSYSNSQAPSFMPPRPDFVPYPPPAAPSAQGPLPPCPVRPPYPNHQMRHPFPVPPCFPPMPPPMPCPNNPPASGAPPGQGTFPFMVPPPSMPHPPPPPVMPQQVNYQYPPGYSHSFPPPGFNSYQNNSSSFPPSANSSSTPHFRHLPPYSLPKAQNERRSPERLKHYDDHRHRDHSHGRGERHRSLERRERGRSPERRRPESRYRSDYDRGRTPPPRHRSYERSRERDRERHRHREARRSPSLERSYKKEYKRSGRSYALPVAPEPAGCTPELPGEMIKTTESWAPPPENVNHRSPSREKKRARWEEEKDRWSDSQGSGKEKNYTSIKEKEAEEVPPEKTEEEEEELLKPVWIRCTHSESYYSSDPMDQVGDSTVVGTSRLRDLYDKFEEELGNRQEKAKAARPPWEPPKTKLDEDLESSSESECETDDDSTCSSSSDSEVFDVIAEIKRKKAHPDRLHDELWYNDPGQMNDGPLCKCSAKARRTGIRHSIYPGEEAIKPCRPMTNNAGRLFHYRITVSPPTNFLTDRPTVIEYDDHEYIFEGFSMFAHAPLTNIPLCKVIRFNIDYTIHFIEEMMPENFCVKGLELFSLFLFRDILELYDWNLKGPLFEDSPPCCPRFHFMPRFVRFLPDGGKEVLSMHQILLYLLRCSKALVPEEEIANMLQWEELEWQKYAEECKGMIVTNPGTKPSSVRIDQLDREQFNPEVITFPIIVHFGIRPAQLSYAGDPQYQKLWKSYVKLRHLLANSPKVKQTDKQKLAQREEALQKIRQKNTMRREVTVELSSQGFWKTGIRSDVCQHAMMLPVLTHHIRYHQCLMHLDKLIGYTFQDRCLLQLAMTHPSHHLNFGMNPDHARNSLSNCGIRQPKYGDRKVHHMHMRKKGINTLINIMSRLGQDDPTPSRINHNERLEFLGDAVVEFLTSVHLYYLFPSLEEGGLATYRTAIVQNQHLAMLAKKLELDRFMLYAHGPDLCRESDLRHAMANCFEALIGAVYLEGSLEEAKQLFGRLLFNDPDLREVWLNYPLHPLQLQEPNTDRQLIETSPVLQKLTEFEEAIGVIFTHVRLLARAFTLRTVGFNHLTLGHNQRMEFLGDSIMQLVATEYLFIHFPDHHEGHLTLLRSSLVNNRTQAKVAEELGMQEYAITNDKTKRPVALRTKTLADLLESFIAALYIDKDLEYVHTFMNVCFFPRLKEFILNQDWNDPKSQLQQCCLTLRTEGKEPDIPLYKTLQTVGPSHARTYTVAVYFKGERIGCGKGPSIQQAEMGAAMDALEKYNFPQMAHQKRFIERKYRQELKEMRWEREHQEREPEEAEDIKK

No constants are given. Whether binding was seen depends on the method and setting. In cells and extracts the contact can be indirect. Some binding calls cover weakened binding; strength is not graded here.

As for “PKC-α (from UniProt P20444 1-672) (enzyme)”, the binding result in test [1] and in test [2] was “no binding” in each case. For Safb1 (from UniProt D3YXK2 1-937), in test [3], the binding result is “binds”.

Regarding Safb1-HA (from UniProt D3YXK2 1-937), the binding entry in test [3] was “binds”.

In the case of “Scaffold Attachment Factor B1 (Safb1) (from UniProt D3YXK2 1-937)”, the binding entry in test [1] was “binds”.

B1: Drosha (enzyme, UniProt Q5HZJ0 1-1373)
chain: MQGNTCHRMSYHPGRGCPRGRGGHGARPSAPAFRPQNLRLLHPQQPPAQYQYEPPSAPSSSYSNSQAPSFMPPRPDFVPYPPPAAPSAQGPLPPCPVRPPYPNHQMRHPFPVPPCFPPMPPPMPCPNNPPASGAPPGQGTFPFMVPPPSMPHPPPPPVMPQQVNYQYPPGYSHSFPPPGFNSYQNNSSSFPPSANSSSTPHFRHLPPYSLPKAQNERRSPERLKHYDDHRHRDHSHGRGERHRSLERRERGRSPERRRPESRYRSDYDRGRTPPPRHRSYERSRERDRERHRHREARRSPSLERSYKKEYKRSGRSYALPVAPEPAGCTPELPGEMIKTTESWAPPPENVNHRSPSREKKRARWEEEKDRWSDSQGSGKEKNYTSIKEKEAEEVPPEKTEEEEEELLKPVWIRCTHSESYYSSDPMDQVGDSTVVGTSRLRDLYDKFEEELGNRQEKAKAARPPWEPPKTKLDEDLESSSESECETDDDSTCSSSSDSEVFDVIAEIKRKKAHPDRLHDELWYNDPGQMNDGPLCKCSAKARRTGIRHSIYPGEEAIKPCRPMTNNAGRLFHYRITVSPPTNFLTDRPTVIEYDDHEYIFEGFSMFAHAPLTNIPLCKVIRFNIDYTIHFIEEMMPENFCVKGLELFSLFLFRDILELYDWNLKGPLFEDSPPCCPRFHFMPRFVRFLPDGGKEVLSMHQILLYLLRCSKALVPEEEIANMLQWEELEWQKYAEECKGMIVTNPGTKPSSVRIDQLDREQFNPEVITFPIIVHFGIRPAQLSYAGDPQYQKLWKSYVKLRHLLANSPKVKQTDKQKLAQREEALQKIRQKNTMRREVTVELSSQGFWKTGIRSDVCQHAMMLPVLTHHIRYHQCLMHLDKLIGYTFQDRCLLQLAMTHPSHHLNFGMNPDHARNSLSNCGIRQPKYGDRKVHHMHMRKKGINTLINIMSRLGQDDPTPSRINHNERLEFLGDAVVEFLTSVHLYYLFPSLEEGGLATYRTAIVQNQHLAMLAKKLELDRFMLYAHGPDLCRESDLRHAMANCFEALIGAVYLEGSLEEAKQLFGRLLFNDPDLREVWLNYPLHPLQLQEPNTDRQLIETSPVLQKLTEFEEAIGVIFTHVRLLARAFTLRTVGFNHLTLGHNQRMEFLGDSIMQLVATEYLFIHFPDHHEGHLTLLRSSLVNNRTQAKVAEELGMQEYAITNDKTKRPVALRTKTLADLLESFIAALYIDKDLEYVHTFMNVCFFPRLKEFILNQDWNDPKSQLQQCCLTLRTEGKEPDIPLYKTLQTVGPSHARTYTVAVYFKGERIGCGKGPSIQQAEMGAAMDALEKYNFPQMAHQKRFIERKYRQELKEMRWEREHQEREPEEAEDIKK
With B1, in test [2], the binding result is given as “binds”.
